Experimental data reported in PubChem BioAssay AID540256 (National Center for Advancing Translational Sciences (NCATS), 2011).
Hit rate of the full screen: of about 300,000 compounds, about 3,700 (1.2%) were called active. Inconclusive means that the source gave no clear call. Such entries were picked first, then a sample of the others. Calls come from the whole dose curve; tested in HEK293 cells. Potencies of inconclusive entries are doubtful fits and often do not repeat.

Assay: qHTS for Inhibitors of binding or entry into cells for Lassa Virus; note: nearly all actives have a fitted effect of over 50% in size
Conditions: Lassa virus pseudotype entry inhibition, cell reporter; series mostly up to 37.9 µM
Potency is the fitted concentration of half-maximal effect.

Row | SMILES | Potency
1 | Cc1ccc2nc(NC(=O)COC(=O)c3ccccn3)sc2c1 | inconclusive: 35.5 µM [inhibitor, single point]
2 | O=C(NCc1cccnc1)c1noc2c1CCCC2 | inactive
3 | COc1ccc(N2CCN(C(=O)c3cnc(SC)nc3C)CC2)cc1 | inactive
4 | CC(C)(C)c1ccc(-c2cn(-c3ccc(Br)cc3)c3[n+]2CCCS3)cc1 | inconclusive: 14.1 µM [inhibitor, partial curve, poor fit]
5 | COc1ccc(-c2ccc(-c3nnn(CC(=O)N4CCOCC4)n3)cc2)cc1 | inconclusive: 7.3 µM [activator, partial curve, poor fit]
6 | CC(=O)Oc1ccc(Cn2cnc3cc4ccccc4cc32)cc1 | inactive
7 | Cc1cccc(N(C(=O)c2csnn2)C(C(=O)NC2CCCCC2)c2ccccn2)c1C (stereo not given) | inactive
8 | COc1ccc(C2(c3ccc(OC)cc3)NC(=O)N(CC(=O)N(C)c3ccccc3)C2=O)cc1 | inconclusive: 35.5 µM [inhibitor, single point]
9 | CCNC(=S)N/N=C/c1ccc(OCCOc2ccccc2C)cc1 | inconclusive: 23.1 µM [inhibitor, single point]
10 | COc1ccc(S(=O)(=O)N(Cc2ccccc2)Cc2nc(-c3ccccc3)no2)cc1 | inconclusive: 14.1 µM [inhibitor, partial curve]
11 | CCOC(=O)C1=C(CS(=O)(=O)c2ccc(C(C)(C)C)cc2)NC(=O)NC1c1cccc(OC)c1 (stereo not given) | inconclusive: 35.5 µM [inhibitor, single point]
12 | N/C(=N\OC(=O)c1ccccc1)C(Cc1ccccc1)C(=O)NOC(=O)c1ccccc1 (stereo not given) | inconclusive: 20 µM [inhibitor, single point]
13 | O=C(Cn1nc(-c2ccc(Cl)cc2)ccc1=O)NCC1COCCO1 (stereo not given) | inactive
14 | Cc1sc(N/N=C/c2cccnc2)nc1-c1ccccc1 | active: 2.91 µM
15 | O=C(CN1CCN(S(=O)(=O)c2ccccc2Cl)CC1)NCC1(N2CCOCC2)CCCCC1 | inconclusive: 0.562 µM [inhibitor, full curve, poor fit]
16 | O=C(Nc1nc2ccc(Cl)cc2s1)c1ccco1 | active: 11.2 µM
17 | Cc1ccc(S(=O)(=O)N2CCN(C(C)C)CC2)cc1 | inconclusive: 35.5 µM [activator, single point]
18 | COc1ccc(C(C(=O)NC2CCCC2)N(C(=O)c2snc(C(N)=O)c2N)c2cc(C)ccc2OC)cc1OC (stereo not given) | inconclusive: 2.24 µM [inhibitor, full curve]
19 | COc1ccc(C2CC(C(F)(F)F)n3nc(C(=O)O)c(Cl)c3N2)cc1OC (stereo not given) | inactive
20 | CC(=O)Oc1ccc(NC(=O)Cc2ccccc2)cc1 | inactive
21 | CCC1(C)Cc2c(sc3[nH]c(=S)n(Cc4ccccc4)c(=O)c23)CO1 (stereo not given) | active: 5.62 µM
22 | OC1(c2ccccc2)CC(c2ccccc2)c2ccccc2O1 (stereo not given) | inconclusive: 3.16 µM [inhibitor, partial curve, poor fit]
23 | CCOc1ccc(-c2cc(C)[n+](CCc3ccc(OC)c(OC)c3)c(-c3ccc(OCC)cc3)c2)cc1 | inconclusive: 22.4 µM [inhibitor, single point]

Entries listed so far containing a tert-butyl group, in the order listed:
Row | SMILES | Potency
4 | CC(C)(C)c1ccc(-c2cn(-c3ccc(Br)cc3)c3[n+]2CCCS3)cc1 | inconclusive: 14.1 µM [inhibitor, partial curve, poor fit]
11 | CCOC(=O)C1=C(CS(=O)(=O)c2ccc(C(C)(C)C)cc2)NC(=O)NC1c1cccc(OC)c1 (stereo not given) | inconclusive: 35.5 µM [inhibitor, single point]

Further entries:

Row | SMILES | Potency
24 | CCN(CC)S(=O)(=O)c1ccc(N2CCOCC2)c(NC(=O)c2ccc3ccccc3c2)c1 | inconclusive: 3.98 µM [inhibitor, full curve]
25 | CN(C)CCN(Cc1cc2cc3c(cc2[nH]c1=O)OCCO3)C(=S)NCC1CCCO1 (stereo not given) | inactive
26 | CS(=O)(=O)N1CCC(C(=O)NCc2ccccc2)CC1 | inconclusive: 12.6 µM [inhibitor, partial curve, poor fit]
27 | O=C1NC2(CCCCC2)C(=O)N1CC(=O)N(Cc1ccccc1)c1ccccc1 | inconclusive: 10 µM [inhibitor, partial curve, poor fit]
28 | CCOc1ccc(S(=O)(=O)N2CCN(C(=O)c3ccc(C)c(S(=O)(=O)N4CCOCC4)c3)CC2)cc1 | inconclusive: 28.2 µM [inhibitor, single point]
29 | Cc1ccc(NC(=O)CCn2cnc3ccccc3c2=O)c(C)c1 | inconclusive: 0.631 µM [inhibitor, partial curve, poor fit]
30 | Cc1oc2ccc(O)c(CN3CCN(Cc4ccccc4)CC3)c2c1C(=O)Nc1ccccc1 | inconclusive: 8.91 µM [inhibitor, partial curve, poor fit]
31 | Cc1c(C(=O)Nc2cccc(F)c2)oc2c1-c1nn(Cc3c(F)cccc3Cl)cc1CC2 | inactive
32 | COc1ccc(N/C=C2/CCCCC2=O)cc1 | inconclusive: 9.2 µM [activator, partial curve]
33 | Cc1cc(C)cc(-n2c3nc4ccccc4nc3c3c(=O)n(Cc4ccco4)cnc32)c1 | inactive
34 | COc1ccc(NC(=O)C[C@H]2C(=O)N(Cc3cccnc3)C[C@@H]2Cc2ccccc2)cc1 | inconclusive: 0.223 µM [activator, full curve, poor fit]
35 | CC(CO)Nc1nc(SCc2ccccc2)nc2sc3c(c12)CCC3 (stereo not given) | inactive
36 | Cc1ccc(OCC(=O)N(C)CC(=O)Nc2ccccc2Cl)c([N+](=O)[O-])n1 | inconclusive: 35.5 µM [activator, single point]
37 | C/C(CCc1ccc2c(c1)OCO2)=N\NC(=O)c1ccccc1 | inconclusive: 35.5 µM [inhibitor, single point]
38 | C=CCc1c(C)nc(SC)nc1Nc1ccc(C(=O)O)cc1 | inactive
39 | O=C(CC1(C(F)(F)F)OCCO1)Nc1ccc2c(c1)OCO2 | inactive
40 | O=C(COC(=O)C1C2CC3OC(=O)C1C3C2)Nc1ccccc1 (stereo not given) | inactive
41 | CCOC(=O)C1(Cc2ccc(OC)cc2)CCN(C(=O)CCc2cnccn2)CC1 | inactive
42 | COc1ccc(Cl)cc1NC(=O)CN(C)C(=O)CCC(=O)c1cc(C)sc1C | inconclusive: 35.5 µM [inhibitor, single point]
43 | O=C(C1COc2ccccc2O1)N1CCN(c2nc3c(F)cccc3s2)CC1 (stereo not given) | inactive
44 | Cc1ccccc1OCCOC(=O)c1cc(S(=O)(=O)N2CCCCC2)ccc1N1CCOCC1 | inconclusive: 35.5 µM [inhibitor, partial curve, poor fit]
45 | COc1ccccc1NC(=O)C1CCN(C(=O)c2ccc(C(C)(C)C)cc2)CC1 | inconclusive: 15.8 µM [inhibitor, single point]
